For at least one entry, the source does not settle the construct or the ends of the probe.
Key:
[1] = target: MS-(B1-L88N)8 (Mycobacterium smegmatis) (UniProt A0QR29); test: binding assay; details: 5mC; idSp spacer; 5' Cholesteryl-TEG on SEQ 32 [strand 1: 9, 27 (5mC); idSp spacer and 5' cholesteryl-TEG (SEQ 32) left out]; 5-methylcytosine and cytosine give different current levels; purified recombinant protein; letters built from the parent sequence and the stated change
Helicase (unspecified) = test: binding assay; details: 5mC; idSp spacer; 5' Cholesteryl-TEG on SEQ 32 [strand 1: 9, 27 (5mC); idSp spacer and 5' cholesteryl-TEG (SEQ 32) left out]; purified recombinant protein; letters built from the parent sequence and the stated change

Q: Does “TTTTTTTTCTTTTTTTTCTTTTTTTTCGTTTTTTTTCGTTTTTTTTGTATCTCCATCGCTGCCCCCTTTTTCCCCCTTTTT / GGCAGCGATGGAGATACTTGAGGCGAGCGGTCAA / TTGACCGCTCGCCTC [5-methylcytosine substrate]” bind [1]?
A: Result: binds

Q: Does “TTTTTTTTCTTTTTTTTCTTTTTTTTCGTTTTTTTTCGTTTTTTTTGTATCTCCATCGCTGCCCCCTTTTTCCCCCTTTTT / GGCAGCGATGGAGATACTTGAGGCGAGCGGTCAA / TTGACCGCTCGCCTC [5-methylcytosine substrate]” bind (Helicase (unspecified))?
A: Result: binds
